The values below come from patent publication US8815847B2, “[1,2,4]thiadiazine 1,1-dioxide compounds for lowering serum uric acid” (Anadys Pharmaceuticals, Inc., priority 2011, dated 2014).

For the test, the system named is serum uric acid. Conditions: single 800 mg oral dose, all six patients receiving the compound.

In the case of `CS(=O)(=O)Nc1ccc2c(c1)S(=O)(=O)N=C(C1=C(O)[C@@H]3[C@H]4CC[C@H](C4)[C@@H]3N(Cc3ccc(F)cc3)C1=O)N2` [Example 2, N-{3-[(1R,2S,7R,8S)-3-(4-Fluoro-benzyl)-6-hydroxy-4-oxo-3-aza-tricyclo[6.2.1.0^2,7]undec-5-en-5-yl]-1,1-dioxo-1,4-dihydro-1λ^6-benzo[1,2,4]thiadiazin-7-yl}-methanesulfonamide], the “decreases in uric acid from the baseline to the end of the trial” value is given as 24-40%.
